Source: PubChem BioAssay AID1259424 (University of Nebraska Medical Center, 2018)
Aim: 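Seek colon cancer survival genes behaving like KSR1, using a six-gene signature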 (primary screen). Cell system: human HCT116 colon cancer cells. Reagent: siRNA pool against human genes, 50 nM. Measurement: 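Log2 levels of six mRNAs (branched-DNA multiplex), adjusted by two reference genes and the non-targeting median, then scored against the average KSR1 knockdown pattern as Pearson r and euclidean distance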. Direction: mean correlation with KSR1 profile and KSR1 correlation: higher = expression change more like KSR1 knockdown; mean distance from KSR1 profile: higher = expression change less like KSR1 knockdown.
Here is one part, drawn at random, of about 14,000 reagents. 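Higher correlation or smaller distance means closer resemblance to KSR1 loss; control wells, including KSR1 knockdowns, recur on many plates.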 Not stated in the record: the time to read-out.

target gene,mean correlation with KSR1 profile,mean distance from KSR1 profile,"KSR1 correlation, replicate 1","KSR1 correlation, replicate 2","KSR1 correlation, replicate 3"
LUZP4 (GeneID 51213),-0.555,4.07,-0.564,-0.498,-0.437
TUBA4A (GeneID 7277),-0.18,2.85,-0.0517,-0.0711,-0.578
GALE (GeneID 2582),0.432,2.68,0.388,0.517,0.459
CDK1 (GeneID 983),0.0123,4.91,0.0668,0.179,-0.23
SRRM2 (GeneID 23524),0.441,1.57,-0.186,0.691,0.731
GPAM (GeneID 57678),0.0517,1.32,0.0265,0.0551,0.0801
OLA1 (GeneID 29789),0.404,1.38,0.138,0.228,0.242
STGC3 (retired record) (GeneID 474171),-0.534,2.11,-0.738,-0.582,-0.23

Records above whose gene name starts with G or g:
target gene,mean correlation with KSR1 profile,mean distance from KSR1 profile,"KSR1 correlation, replicate 1","KSR1 correlation, replicate 2","KSR1 correlation, replicate 3"
GALE (GeneID 2582),0.432,2.68,0.388,0.517,0.459
GPAM (GeneID 57678),0.0517,1.32,0.0265,0.0551,0.0801

Continued:
target gene,mean correlation with KSR1 profile,mean distance from KSR1 profile,"KSR1 correlation, replicate 1","KSR1 correlation, replicate 2","KSR1 correlation, replicate 3"
VWF (GeneID 7450),-0.0513,3,0.0449,0.0301,-0.0295
ARV1 (GeneID 64801),-0.401,1.78,-0.592,-0.411,-0.105
TACO1 (GeneID 51204),0.412,1.99,0.316,0.381,0.45
CDC34 (GeneID 997),-0.212,1.71,-0.243,-0.226,-0.277
DONSON (GeneID 29980),-0.324,3.28,-0.235,-0.255,-0.513
SERPINI2 (GeneID 5276),-0.0511,2.09,-0.055,-0.136,0.0246
PACC1 (GeneID 55248),-0.177,1.67,-0.121,-0.267,-0.256
OSBP (GeneID 5007),0.456,1.59,0.233,0.256,0.575
TNFAIP8 (GeneID 25816),-0.412,2.25,-0.313,-0.615,-0.56
GID4 (GeneID 79018),0.0977,3.46,0.0654,-0.227,-0.109
HGD (GeneID 3081),0.257,2.07,0.303,0.22,0.204
ABTB2 (GeneID 25841),0.738,1.29,0.877,0.866,0.388
